Laboratory results as given in patent US8349862B2, “Pyridine derivatives for the treatment of metabolic disorders related to insulin resistance or hyperglycemia” (Piramal Healthcare Limited, priority 2006, dated 2013).
For at least one compound, name, drawing or mass did not settle the structure.

Tested on: insulin resistant adipocytes (differentiated 3T3 L1 fibroblasts)
Assay: In vitro model exhibiting insulin resistance: 14C-2-deoxyglucose uptake in dexamethasone-treated adipocytes
Format: cell-based
Conditions: test compound 10 μM/mL, Rosiglitazone 0.1 μM
Experimental: The assay was designed as in reference, British Journal of Pharmacology, 130, 351-58, 2000, the disclosure of which is incorporated by reference for the teaching of the assay. The solution of test compound (10 μM/mL) was prepared in DMSO. […] Differentiation into adipocytes was induced by known methods as described below. (J. Biol. […] 3T3 L1 fibroblasts were seeded in 24- or 6-well plates at a density of 0.5-2×10^4 cells/well and were allowed to reach maximal confluency. The confluent fibroblasts were exposed to culture medium for 2 days. […] The mature adipocytes were exposed to dexamethasone, 100 nM added in ethanol, in culture medium and incubated for 2 days. […] The test compound was also present during this period. After 3-4 hours, the medium was aspirated and replaced with Kreb's Ringer phosphate (KRP) buffer at pH 7.4 and with human/porcine insulin, 200 nM. The cells were incubated for 30 minutes at 37° C. […] After exactly 5 minutes, the plates were transferred to ice trays and medium was rapidly aspirated. The cell layer was washed twice with ice-cold phosphate buffered saline, (PBS), pH 7.4. […] Non-specific glucose uptake was assayed in wells exposed to cytochalasin B, inhibitor of glucose transport. […] Statistical analysis was performed using unpaired t-test.

CN(CCOc1ccc(CC2SC(=O)NC2=O)cc1)c1ccccn1 (stereo not shown) [Rosiglitazone, reference compound]
% of Rosiglitazone (comparison with Rosiglitazone, glucose uptake): 100%
